In the supplement of paper PMC5949888:
± gives the standard deviation of the averaged measurements. Most values lie at the floor of the assay. Slopes are relative: functional sequences can read slightly below zero.

Each substance was assayed on Saccharomyces cerevisiae PS128 hsf1 delta, HSF1(1-493) fusion (assay: growth estimate (transactivation domain function in HSF1 fusion, heat-shock survival) (a.u. (slope of normalised read count over time)); higher = stronger growth at 37°C, i.e. more transactivation activity). Details: library: random library.
In the case of FVIIGELSLGGNGGVTSLCE, the growth estimate is reported as under -0.25. TVLR was tested, and the growth estimate was -0.244 ± 0.011. In the case of GKGTESLWVGVGYLISP, the growth estimate is reported as under -0.25. GDYVPESKAT gave a growth estimate of -0.223. PTSHPP was tested, and the growth estimate was under -0.25. SSGVHQFHGSASGIDGNPWD gave a growth estimate of under -0.25. Substance TNW has a growth estimate of under -0.25. KRGRVLVPTLYPGKHAASLV gave a growth estimate of -0.246. LQWPTVLRKFVYPYRQVAGH showed a growth estimate of under -0.25. Work on GWLQRRLMLLGRSRGHTGLS yielded a growth estimate of under -0.25. Substance RGRPVGRG has a growth estimate of under -0.25. Work on GHQ yielded a growth estimate of under -0.25. In the case of LKNKPRNTAVDTRTLLF, the growth estimate is reported as under -0.25. In the case of AWAGQGVKMWSMARF, the growth estimate is reported as under -0.25. For RPESR, the growth estimate was under -0.25. RLRLIIRIRWDLIRTT showed a growth estimate of under -0.25. With ASCCGFV the growth estimate was under -0.25. Work on ILWSLETVPYSMH yielded a growth estimate of -0.0809. For TGGGRLYDLLFLLPTYLSNQ, the growth estimate was under -0.25. Work on LVTFVAAVPECKSLMAE yielded a growth estimate of under -0.25. For GHIATTRRRQDYVPCSKESF, the growth estimate was under -0.25. FESA gave a growth estimate of under -0.25. GNNLVCMERKTFALDQAESH was tested, and the growth estimate was under -0.25. SGHWSCRVTDDVRRLGAPSN showed a growth estimate of under -0.25. Substance FYHNLRHHWNSIT has a growth estimate of under -0.25. Work on SACH yielded a growth estimate of under -0.25. With VNPQLIRLIADYSHVLGFNR the growth estimate was under -0.25. In the case of HKLRTARRGALEHPRSE, the growth estimate is reported as under -0.25. RCNGI gave a growth estimate of under -0.25. In the case of EHKLD, the growth estimate is reported as under -0.25. Work on LDLGYDTSHTTRGRKVGLWS yielded a growth estimate of under -0.25. For QELRR, the growth estimate was under -0.25. With AYLMGRSETPGWPQTTVPQT the growth estimate was under -0.25. GTSGLTLLSAIFGRASSMTG gave a growth estimate of under -0.25. KDLWGWHG showed a growth estimate of -0.246. With RCRVVFEIWSCSNLGGRHDY the growth estimate was under -0.25. For RAWTTNTPGGGCEGY, the growth estimate was under -0.25. With SPSLGRSINGRSWGEDPRVT the growth estimate was under -0.25. For VYKRR, the growth estimate was under -0.25. IRPGSATWNHKIPGIPLVPG gave a growth estimate of under -0.25. ASTRVSLVGKAFLGLQRSQG was tested, and the growth estimate was under -0.25. In the case of VCVVSRIELSVHGAIRDM, the growth estimate is reported as under -0.25. Substance IQGPLAELRCTANSWIFHVE has a growth estimate of under -0.25. APCGGWK gave a growth estimate of under -0.25. In the case of ATPYCSATHRYDSTSQDSHS, the growth estimate is reported as under -0.25. Substance DVTSRRIEKVLRIRHSVYFS has a growth estimate of under -0.25. In the case of RIEKSRSRATLYLRQGLPGT, the growth estimate is reported as under -0.25. With RIMEDEYRE the growth estimate was under -0.25. NLLIMDRSITHRHPPILPMP gave a growth estimate of under -0.25. For RIDPVNGECTESHLYRVP, the growth estimate was under -0.25. In the case of GLMEGSSALGLKAMQ, the growth estimate is reported as under -0.25. VGWGLPLLARNRFRLTPQTR gave a growth estimate of under -0.25. For TRNSVVCEGTRTGDTA, the growth estimate was under -0.25. Substance EPLYREQSWSGMRGVDLRYL has a growth estimate of under -0.25. YVSRLRCICAGHGSEGYPVG gave a growth estimate of under -0.25. TAKRVNKSSLCTLDIRTPKA gave a growth estimate of under -0.25. For SPTRARCMQVNLLKRL, the growth estimate was under -0.25. With VPIALMIHWEQPDLLNGESG the growth estimate was under -0.25. For RCRLRTHLSG, the growth estimate was under -0.25. Substance LPLTTASNCSH has a growth estimate of under -0.25. Work on YLAELDQVRHPAQMVA yielded a growth estimate of under -0.25. RGFLA showed a growth estimate of under -0.25. Work on PRYSSTIF yielded a growth estimate of under -0.25. With LIAEDVFSSVQIVRRDNSMK the growth estimate was under -0.25. For YIRQVIPGAQIGSVVLTPLA, the growth estimate was under -0.25. In the case of ENAAMECTKPRALTPIYGR, the growth estimate is reported as under -0.25. Substance RLASHGAP has a growth estimate of under -0.25. With GSLGASASLPRGAADGNTKS the growth estimate was under -0.25. SLW gave a growth estimate of under -0.25. Work on CPWLFCGTFNSGLM yielded a growth estimate of under -0.25. SKAVDIRIKGRLTYGGHM gave a growth estimate of under -0.25. In the case of RIGPAPAQFVVRLR, the growth estimate is reported as under -0.25. For RSYVGYFSQTILHIFKIH, the growth estimate was under -0.25. SKGPKANMRLRCPSRLEIVI gave a growth estimate of under -0.25. Work on CCSPMPRRHRRGTQDVKLIF yielded a growth estimate of under -0.25. Work on PGHLRRGGS yielded a growth estimate of under -0.25. With RLIGTGPLVWTGKVNTRVLP the growth estimate was under -0.25. For GSG, the growth estimate was -0.2493 ± 0.0017. RACNTRIHAERTLYADFGEG showed a growth estimate of under -0.25. PQREVLLESRHLVPRQNLPR showed a growth estimate of under -0.25. Work on GCTGGSGGGAIIV yielded a growth estimate of under -0.25. TAGTIARSRADFTWHSAFRR gave a growth estimate of under -0.25. Work on RVVVLENSCL yielded a growth estimate of under -0.25. SDNRQHGGATKHRAPETDVS was tested, and the growth estimate was under -0.25. FMNTI gave a growth estimate of under -0.25. For TRCSRSLNGP, the growth estimate was under -0.25. ESEGSG was tested, and the growth estimate was under -0.25. RPFMDLSRQDVSPYCRHTKA gave a growth estimate of under -0.25. Work on SILRAQFAILGVTRPESMSA yielded a growth estimate of under -0.25. Work on RYTVVKQYWVLKSVRTRHLT yielded a growth estimate of under -0.25. Substance NVSFARKDLNGIEVLN has a growth estimate of -0.245. Work on VGPQMGTGAEMAVDVMLIYT yielded a growth estimate of under -0.25. VPLNWSGKTRRWSGKHLKVV was tested, and the growth estimate was under -0.25. With RTCTVDMSVRDIGGLLRGKK the growth estimate was under -0.25. Work on GKLLTRGIRVLSVDNRGFRG yielded a growth estimate of under -0.25. Work on TCFTYCGTMTM yielded a growth estimate of -0.246. Work on HFMNAVNRSDGPGP yielded a growth estimate of under -0.25. Work on SWSE yielded a growth estimate of 0.251 ± 0.71. LRRFSGDSAQSWIA was tested, and the growth estimate was under -0.25. For DHHIVLERLEAHPAYFGIVL, the growth estimate was under -0.25. Work on TDSEAW yielded a growth estimate of under -0.25. KGEPNGRPLNPLNLQQ gave a growth estimate of under -0.25. Work on NYLKAIQSNEEGAEYTI yielded a growth estimate of under -0.25. With PGILFSGPTVSHPKLG the growth estimate was under -0.25. Work on VNRDGPAPTEVETGNRRGLV yielded a growth estimate of under -0.25. With LQLDYDD the growth estimate was under -0.25. With LERFCGRPGSTPPSSGQPPD the growth estimate was -0.232. Work on LEICQVCLQGACQNVTTLQR yielded a growth estimate of under -0.25. VVLLRYVREGGNL gave a growth estimate of under -0.25. HPVRQRYHTSVARLFHMCRH gave a growth estimate of under -0.25. In the case of IVRGGSGLFGILAVNRWRPA, the growth estimate is reported as under -0.25. For AGVRS, the growth estimate was under -0.25. RRAGTMSGQLQGILIPNAAN showed a growth estimate of under -0.25. In the case of RLALCGSDLCFLLDSLQKSH, the growth estimate is reported as under -0.25. TLVGLVDGIATRARAYRRSP gave a growth estimate of under -0.25. IKQ gave a growth estimate of under -0.25. SQDGWSCGRLTTPDS gave a growth estimate of under -0.25. NIYRRSFHHYQSNGACWLVG showed a growth estimate of -0.246. VPLWGG showed a growth estimate of under -0.25. RIMI showed a growth estimate of under -0.25. Work on LHEHSAQLSFVIKGPTGLLA yielded a growth estimate of under -0.25. With ICLHVISTCAAPVHDSSGYA the growth estimate was under -0.25. In the case of TARYRHVA, the growth estimate is reported as under -0.25. With PPGPNLHAQ the growth estimate was under -0.25. Substance RSLCSYHAL has a growth estimate of under -0.25. With RLVNLGGTCRRMSAPGALFG the growth estimate was under -0.25. AFA showed a growth estimate of under -0.25. With SFPLRNPRVRRLGTPGRPAE the growth estimate was under -0.25. Work on ERAGMLDRSYLDSEVYRGLT yielded a growth estimate of under -0.25. IPAFTMLQ showed a growth estimate of under -0.25. Substance VIQRCMLAEGT has a growth estimate of under -0.25. Work on SESQ yielded a growth estimate of under -0.25. With PPRLAGDGSEHTTGGNAVSR the growth estimate was under -0.25. Work on WSTSHRIQYAGLETDPCIQG yielded a growth estimate of under -0.25. In the case of SICSSSDLRRPIR, the growth estimate is reported as under -0.25. For FSRMRVACIGLERGSQVGGE, the growth estimate was under -0.25. CEYRALRNIGSKSSDKSHVL was tested, and the growth estimate was under -0.25. EVTLTTDE gave a growth estimate of under -0.25. IRDCVLSTGPNLKHEICRRR gave a growth estimate of under -0.25. RMLL showed a growth estimate of under -0.25. In the case of STLN, the growth estimate is reported as under -0.25. For FREAGKGSPKSRTGTTES, the growth estimate was under -0.25. In the case of IVTQVMWAGGRYLTSSV, the growth estimate is reported as under -0.25. In the case of TSSKGFGKLGRRGVTSVALG, the growth estimate is reported as under -0.25. In the case of CYFAATRTSI, the growth estimate is reported as under -0.25. With IEYGSGVRSTGSVRRRSYIG the growth estimate was under -0.25. Substance MSRKPVIYSCTRGQD has a growth estimate of under -0.25. In the case of SFSGITGLHGMGA, the growth estimate is reported as under -0.25. Work on WFLLYCFLGSVSLCICGHLV yielded a growth estimate of under -0.25. VCCRRSIIRKG was tested, and the growth estimate was under -0.25. NLVVKICSESRAFSVISRPR showed a growth estimate of under -0.25. For VAACLFVAQGCRLIS, the growth estimate was under -0.25. IYSRVVGYYNPYRACAQQSQ showed a growth estimate of under -0.25. IDSLLKTKT was tested, and the growth estimate was under -0.25. REDRTNPNNFVWPWA was tested, and the growth estimate was 2.17. For ALRGSSNQE, the growth estimate was under -0.25. Work on RFASGDALYRDG yielded a growth estimate of under -0.25. In the case of SCGWGTIAWTSGLRHYLAGH, the growth estimate is reported as under -0.25.
